Source: publication PMC7073140 (International Journal of Molecular Sciences, 2020)
Residues, ends and D or L forms follow the SMILES beside them.

Legend:
[1] = system: bacterial cells over human erythrocytes; conditions: calculated as HC10/GM
peptide made by a vendor = conditions: whole synthesis, 220 nm

Compound | Therapeutic Index (TI) [1] | final HPLC purity (peptide made by a vendor)
CC[C@H](C)[C@H](NC(=O)[C@H](CCCCN)NC(=O)[C@H](CCCCN)NC(=O)[C@H](Cc1ccccc1)NC(=O)[C@H](CC(C)C)NC(=O)[C@H](CCCCN)NC(=O)[C@H](Cc1c[nH]c2ccccc12)NC(=O)[C@@H](N)CCCCN)C(=O)N[C@@H](CCCNC(=N)N)C(=O)N[C@@H](Cc1ccccc1)C(=O)NCC(=O)N[C@@H](CCCNC(=N)N)C(=O)N[C@@H](Cc1ccccc1)C(=O)N[C@@H](CC(C)C)C(=O)N[C@@H](CCCNC(=N)N)C(=O)N[C@@H](CCCCN)C(=O)N[C@H](C(=O)N[C@@H](CCCNC(=N)N)C(=O)N[C@@H](CCCNC(=N)N)C(=O)N[C@@H](Cc1ccccc1)C(=O)N[C@@H](CCCNC(=N)N)C(=O)N1CCC[C@H]1C(=O)N[C@@H](CCCCN)C(N)=O)[C@@H](C)CC [CA-FO] (H-KWKLFKKIRFGRFLRKIRRFRPK-NH2) | 41.80 | –
CC[C@H](C)[C@H](NC(=O)[C@H](CCCCN)NC(=O)[C@H](CCCCN)NC(=O)[C@H](Cc1ccccc1)NC(=O)[C@H](CC(C)C)NC(=O)[C@H](CCCCN)NC(=O)[C@H](Cc1c[nH]c2ccccc12)NC(=O)[C@@H](N)CCCCN)C(=O)N[C@@H](Cc1c[nH]c2ccccc12)C(=O)N[C@@H](Cc1c[nH]c2ccccc12)C(=O)N1CCC[C@H]1C(=O)N[C@@H](Cc1ccccc1)C(=O)N[C@@H](CC(C)C)C(=O)N[C@@H](CCCNC(=N)N)C(=O)N[C@@H](CCCNC(=N)N)C(N)=O [CA-TP] (H-KWKLFKKIWWPFLRR-NH2) | 18.26 | –
CC[C@H](C)[C@H](NC(=O)[C@H](CCCCN)NC(=O)[C@H](CCCCN)NC(=O)[C@H](Cc1ccccc1)NC(=O)[C@H](CC(C)C)NC(=O)[C@H](CCCCN)NC(=O)[C@H](Cc1c[nH]c2ccccc12)NC(=O)[C@@H](N)CCCCN)C(N)=O [CA] (H-KWKLFKKI-NH2) | 0.08 | –
CC[C@H](C)[C@H](NC(=O)[C@H](CCCCN)NC(=O)[C@H](CCCNC(=N)N)NC(=O)[C@H](CC(C)C)NC(=O)[C@H](Cc1ccccc1)NC(=O)[C@H](CCCNC(=N)N)NC(=O)CNC(=O)[C@H](Cc1ccccc1)NC(=O)[C@@H](N)CCCNC(=N)N)C(=O)N[C@@H](CCCNC(=N)N)C(=O)N[C@@H](CCCNC(=N)N)C(=O)N[C@@H](Cc1ccccc1)C(=O)N[C@@H](CCCNC(=N)N)C(=O)N1CCC[C@H]1C(=O)N[C@@H](CCCCN)C(N)=O [FO] (H-RFGRFLRKIRRFRPK-NH2) | 0.11 | –
CC(C)C[C@H](NC(=O)[C@H](Cc1ccccc1)NC(=O)[C@@H]1CCCN1C(=O)[C@H](Cc1c[nH]c2ccccc12)NC(=O)[C@@H](N)Cc1c[nH]c2ccccc12)C(=O)N[C@@H](CCCNC(=N)N)C(=O)N[C@@H](CCCNC(=N)N)C(N)=O [TP] (H-WWPFLRR-NH2) | 0.34 | –
KWKLFKKI-NH2 | – | 95.74%
KWKLFKKIRFGRFLRKIRRFRPK-NH2 | – | 95.72%
KWKLFKKIWWPFLRR-NH2 | – | 97.42%
RFGRFLRKIRRFRPK-NH2 | – | 99.25%
WWPFLRR-NH2 | – | 98.33%
